Laboratory results taken from paper PMC12436663.
These are yes or no findings as the source states them, for the method shown. Binding seen in cells or lysates may run through a third protein. A yes stands for co-enrichment or nearness to the bait. Other partners may have been found.

Protein sequences, listed by entry. Tags and fused reporters are not part of them.
UniProt Q08857: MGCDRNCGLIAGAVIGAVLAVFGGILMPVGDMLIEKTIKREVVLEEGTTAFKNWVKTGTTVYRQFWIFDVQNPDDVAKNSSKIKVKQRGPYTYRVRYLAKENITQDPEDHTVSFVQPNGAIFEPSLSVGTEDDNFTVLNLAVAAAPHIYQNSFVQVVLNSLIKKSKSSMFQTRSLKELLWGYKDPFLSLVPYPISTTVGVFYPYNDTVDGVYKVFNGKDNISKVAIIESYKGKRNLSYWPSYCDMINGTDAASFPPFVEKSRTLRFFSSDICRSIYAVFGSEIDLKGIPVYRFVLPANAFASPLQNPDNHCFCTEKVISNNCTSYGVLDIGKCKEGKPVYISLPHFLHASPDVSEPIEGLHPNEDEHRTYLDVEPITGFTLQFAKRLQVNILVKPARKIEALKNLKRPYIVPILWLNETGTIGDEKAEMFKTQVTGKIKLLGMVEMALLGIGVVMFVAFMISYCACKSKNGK
UniProt P49817: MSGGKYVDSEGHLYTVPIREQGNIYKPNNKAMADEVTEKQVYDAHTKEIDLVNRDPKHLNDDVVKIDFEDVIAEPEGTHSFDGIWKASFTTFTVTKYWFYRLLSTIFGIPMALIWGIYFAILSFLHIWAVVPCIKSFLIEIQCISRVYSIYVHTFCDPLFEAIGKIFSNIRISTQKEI

T1: Nutritionally regulated adipose and cardiac enriched protein (NRAC), endogenous mouse (mouse (endogenous in mouse adipose tissue)) (UniProt Q8BNX7)
T1 sequence: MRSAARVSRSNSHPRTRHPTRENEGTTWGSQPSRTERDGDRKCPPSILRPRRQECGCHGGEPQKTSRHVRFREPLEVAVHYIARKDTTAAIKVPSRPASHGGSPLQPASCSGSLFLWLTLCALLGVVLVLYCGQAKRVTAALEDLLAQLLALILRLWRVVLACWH


molecular target: T1, Nutritionally regulated adipose and cardiac enriched protein (NRAC), endogenous mouse (mouse (endogenous in mouse adipose tissue)); assay: affinity purification with mass spectrometry; NRAC immunoprecipitated with the rat monoclonal NRAC antibody from PGF lysate of wt mice, PGF of Nrac ko mice as control (n = 4); IP lysis buffer 25 mM Tris HCl, 1 mM EDTA, 150 mM NaCl, 5% glycerol, 1% Triton X-100; overnight at 4 °C, Dynabeads …

binding	Molecule
binds	CD36, endogenous mouse (from UniProt Q08857 1-472) (receptor)
binds	caveolin-1, endogenous mouse (from UniProt P49817 1-178)
binds	cavin 1, endogenous mouse (protein, UniProt O54724 1-392) MEDVTLHIVERPYSGFPDASSEGPEPTQGEARATEEPSGTGSDELIKSDQVNGVLVLSLLDKIIGAVDQIQLTQAQLEERQAEMEGAVQSIQGELSKLGKAHATTSNTVSKLLEKVRKVSVNVKTVRGSLERQAGQIKKLEVNEAELLRRRNFKVMIYQDEVKLPAKLSVSKSLKESEALPEKEGDELGEGERPEDDTAAIELSSDEAVEVEEVIEESRAERIKRSGLRRVDDFKKAFSKEKMEKTKVRTRENLEKTRLKTKENLEKTRHTLEKRMNKLGTRLVPVERREKLKTSRDKLRKSFTPDHVVYARSKTAVYKVPPFTFHVKKIREGEVEVLKATEMVEVGPEDDEVGAERGEATDLLRGSSPDVHTLLEITEESDAVLVDKSDSD
